Measurements reported in PubChem BioAssay AID1259254 (NCATS, 2017).
In all, the deposit lists about 59,000 reagents; shown is an unselected part. About 1,550 of them (2.6%) count as active. 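G2 share is only a proxy for re-replication; each gene was hit by three separate siRNAs, and active genes were retested.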 The numbers tell different reagents against one gene apart. Further read-outs or replicates are left out here. Not given: the amount of reagent.

Assay: 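Finding genes that stop cells copying their DNA twice in one cycle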 (primary screen)
Cells: human HCT116 colorectal cancer cells
Reagent: single siRNA against human genes
Time to read-out: 3 days
Read-out: 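Nuclei stained with Hoechst and imaged; cell-cycle phase assigned by DNA content; G2 share scaled per plate, non-targeting siRNA 0%, GMNN siRNA 100%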
Direction: G2 robust z-score: higher = more G2 cells, more excess DNA replication
Rule for the call: 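Active siRNAs have a G2 robust z of 5 or more median absolute deviations over the median, which in these data means about 38% or higher of GMNN control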

gene	reagent no.	G2 robust z-score	outcome
SELL (GeneID 6402)	1	-0.765	inactive
SELL (GeneID 6402)	2	-0.268	inactive
SELL (GeneID 6402)	3	1.38	inactive
FNDC7 (GeneID 163479)	1	-0.463	inactive
FNDC7 (GeneID 163479)	2	-0.284	inactive
FNDC7 (GeneID 163479)	3	2.08	inactive
MPP2 (GeneID 4355)	1	2.12	inactive
MPP2 (GeneID 4355)	2	-0.545	inactive
MPP2 (GeneID 4355)	3	-0.536	inactive
ZNF260 (GeneID 339324)	1	-0.618	inactive
ZNF260 (GeneID 339324)	2	1.22	inactive
ZNF260 (GeneID 339324)	3	0.578	inactive
DCAF8 (GeneID 50717)	1	-0.695	inactive
DCAF8 (GeneID 50717)	2	0.00808	inactive
DCAF8 (GeneID 50717)	3	-0.689	inactive
HAUS8 (GeneID 93323)	1	-0.436	inactive
HAUS8 (GeneID 93323)	2	0.595	inactive
HAUS8 (GeneID 93323)	3	0.768	inactive

4 of these entries in another layout.
ZNF260 (GeneID 339324) #3 | G2 robust z-score = 0.578; outcome = inactive
DCAF8 (GeneID 50717) #1 | G2 robust z-score = -0.695; outcome = inactive
DCAF8 (GeneID 50717) #2 | G2 robust z-score = 0.00808; outcome = inactive
DCAF8 (GeneID 50717) #3 | G2 robust z-score = -0.689; outcome = inactive

More entries:
gene	reagent no.	G2 robust z-score	outcome
ADGRV1 (GeneID 84059)	1	0.334	inactive
ADGRV1 (GeneID 84059)	2	-0.15	inactive
ADGRV1 (GeneID 84059)	3	2.43	inactive
ZNF676 (GeneID 163223)	1	-0.0506	inactive
ZNF676 (GeneID 163223)	2	0.068	inactive
ZNF676 (GeneID 163223)	3	-1.01	inactive
TECPR2 (GeneID 9895)	1	2.92	inactive
TECPR2 (GeneID 9895)	2	0.645	inactive
TECPR2 (GeneID 9895)	3	0.393	inactive
PTPN2 (GeneID 5771)	1	-0.582	inactive
PTPN2 (GeneID 5771)	2	0.056	inactive
PTPN2 (GeneID 5771)	3	-0.414	inactive
ZNF852 (GeneID 285346)	1	-0.121	inactive
ZNF852 (GeneID 285346)	2	1.28	inactive
ZNF852 (GeneID 285346)	3	0.692	inactive
SETD1B (GeneID 23067)	1	0.153	inactive
SETD1B (GeneID 23067)	2	1.39	inactive
SETD1B (GeneID 23067)	3	-0.82	inactive
DLD (GeneID 1738)	1	2.93	inactive
DLD (GeneID 1738)	2	0.0227	inactive
DLD (GeneID 1738)	3	-0.776	inactive
OR14K1 (GeneID 343170)	1	-0.574	inactive
OR14K1 (GeneID 343170)	2	0.96	inactive
OR14K1 (GeneID 343170)	3	0.657	inactive
IQUB (GeneID 154865)	1	0.317	inactive
IQUB (GeneID 154865)	2	1.39	inactive
IQUB (GeneID 154865)	3	0.602	inactive
CBX3P6 (GeneID 642721)	1	1.73	inactive
CBX3P6 (GeneID 642721)	2	-0.594	inactive
CBX3P6 (GeneID 642721)	3	-0.875	inactive
